Measurements reported in PubChem BioAssay AID1224830 (NIAID, 2016)
This is an unselected part of about 18,000 reagents tested. Of all reagents, about 2,900 (16%) got an active call. 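Calls are made per well; low scores hint the gene aids the LPS response, high scores that it dampens it.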 Repeated entries: four replicate wells of each siRNA pool.

Assay: 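Genes whose knock-down alters the TNF-alpha reporter response to LPS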 (primary screen)
System: human THP-1 monocytic leukaemia cells, TNF dual-luciferase reporter clone, PMA-differentiated to macrophage-like cells
Reagents: siRNA pool against human genes, 50 nM
Duration: LPS for 4 h, given about 3 days after siRNA transfection
Treatment: bacterial LPS (TLR4 ligand), 10 ng/ml
Measurement: 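TNF firefly reporter luminescence divided by renilla, normalised to the plate median, then turned into a robust z-score for each replicate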
Scale: TNF reporter robust z-score: higher = stronger TNF reporter response to LPS
Active means: 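a well is active when its z-score exceeds 2.8 or falls below -1.5; control wells carry no call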

target gene,PubChem SID,TNF reporter robust z-score,call
CAPN11 (GeneID 11131),SID315454623,2.64,inactive
CAPN11 (GeneID 11131),SID315454623,-0.49,inactive
CAPN11 (GeneID 11131),SID315454623,-0.22,inactive
CAPN11 (GeneID 11131),SID315454623,2.04,inactive
ATP6V1B1 (GeneID 525),SID315447478,1.21,inactive
ATP6V1B1 (GeneID 525),SID315447478,0.28,inactive
ATP6V1B1 (GeneID 525),SID315447478,2.48,inactive
ATP6V1B1 (GeneID 525),SID315447478,-0.64,inactive
APTX (GeneID 54840),SID315457199,-0.02,inactive
APTX (GeneID 54840),SID315457199,0.26,inactive
APTX (GeneID 54840),SID315457199,-0.11,inactive
APTX (GeneID 54840),SID315457199,1.3,inactive
AKAP14 (GeneID 158798),SID315462673,-1.06,inactive
AKAP14 (GeneID 158798),SID315462673,-0.39,inactive
AKAP14 (GeneID 158798),SID315462673,-0.16,inactive
AKAP14 (GeneID 158798),SID315462673,-0.03,inactive
PIK3CB (GeneID 5291),SID315450589,8.51,active
PIK3CB (GeneID 5291),SID315450589,1,inactive
PIK3CB (GeneID 5291),SID315450589,-0.73,inactive
PIK3CB (GeneID 5291),SID315450589,0.59,inactive
GALT (GeneID 2592),SID315448831,-0.14,inactive
GALT (GeneID 2592),SID315448831,-0.29,inactive
GALT (GeneID 2592),SID315448831,-0.96,inactive
GALT (GeneID 2592),SID315448831,-0.46,inactive
OR52B6 (GeneID 340980),SID315464106,-0.25,inactive
OR52B6 (GeneID 340980),SID315464106,0.03,inactive
OR52B6 (GeneID 340980),SID315464106,-0.06,inactive
OR52B6 (GeneID 340980),SID315464106,4.11,active
GRK2 (GeneID 156),SID315447224,0.19,inactive
GRK2 (GeneID 156),SID315447224,-1.15,inactive
GRK2 (GeneID 156),SID315447224,-0.82,inactive
NUPR1 (GeneID 26471),SID315455783,0.98,inactive
NUPR1 (GeneID 26471),SID315455783,1.02,inactive
NUPR1 (GeneID 26471),SID315455783,0.96,inactive
NUPR1 (GeneID 26471),SID315455783,1.08,inactive
PSMB3 (GeneID 5691),SID315450892,-1.89,active
PSMB3 (GeneID 5691),SID315450892,-1.95,active
PSMB3 (GeneID 5691),SID315450892,-1.64,active
PSMB3 (GeneID 5691),SID315450892,-1.37,inactive
FNDC1 (GeneID 84624),SID315460422,1.09,inactive
FNDC1 (GeneID 84624),SID315460422,2.29,inactive
FNDC1 (GeneID 84624),SID315460422,2.2,inactive
FNDC1 (GeneID 84624),SID315460422,2.43,inactive
DNAJC16 (GeneID 23341),SID315455173,-0.14,inactive
DNAJC16 (GeneID 23341),SID315455173,0.83,inactive
DNAJC16 (GeneID 23341),SID315455173,0.24,inactive
DNAJC16 (GeneID 23341),SID315455173,0.46,inactive
ZC3H12A (GeneID 80149),SID315459669,-0.99,inactive
ZC3H12A (GeneID 80149),SID315459669,-0.85,inactive
ZC3H12A (GeneID 80149),SID315459669,-1.11,inactive
ZC3H12A (GeneID 80149),SID315459669,0,inactive
CLDND1 (GeneID 56650),SID315458096,1.89,inactive
CLDND1 (GeneID 56650),SID315458096,2.03,inactive
CLDND1 (GeneID 56650),SID315458096,2.25,inactive
CLDND1 (GeneID 56650),SID315458096,4.97,active
EVA1C (GeneID 59271),SID315458669,-0.01,inactive
EVA1C (GeneID 59271),SID315458669,1.04,inactive
EVA1C (GeneID 59271),SID315458669,-1.18,inactive
EVA1C (GeneID 59271),SID315458669,-1.32,inactive
YAP1 (GeneID 10413),SID315454068,-1.27,inactive
YAP1 (GeneID 10413),SID315454068,-0.96,inactive
YAP1 (GeneID 10413),SID315454068,-0.82,inactive
YAP1 (GeneID 10413),SID315454068,-1.19,inactive
RAI2 (GeneID 10742),SID315454328,0.19,inactive
RAI2 (GeneID 10742),SID315454328,1.8,inactive
RAI2 (GeneID 10742),SID315454328,2.62,inactive
RAI2 (GeneID 10742),SID315454328,2.38,inactive

Continued; the last 4 above are carried over.
target gene,PubChem SID,TNF reporter robust z-score,call
RAI2 (GeneID 10742),SID315454328,0.19,inactive
RAI2 (GeneID 10742),SID315454328,1.8,inactive
RAI2 (GeneID 10742),SID315454328,2.62,inactive
RAI2 (GeneID 10742),SID315454328,2.38,inactive
CTRL (GeneID 1506),SID315448174,-1.23,inactive
CTRL (GeneID 1506),SID315448174,-0.69,inactive
CTRL (GeneID 1506),SID315448174,-1.52,active
CTRL (GeneID 1506),SID315448174,0.31,inactive
GRAMD1B (GeneID 57476),SID315458407,1.53,inactive
GRAMD1B (GeneID 57476),SID315458407,0.96,inactive
GRAMD1B (GeneID 57476),SID315458407,2.38,inactive
GRAMD1B (GeneID 57476),SID315458407,0.52,inactive
RGCC (GeneID 28984),SID315456097,-0.27,inactive
RGCC (GeneID 28984),SID315456097,-1.13,inactive
RGCC (GeneID 28984),SID315456097,-1.08,inactive
RGCC (GeneID 28984),SID315456097,-1.3,inactive
TIGD6 (GeneID 81789),SID315459943,-1.91,active
TIGD6 (GeneID 81789),SID315459943,-1.35,inactive
TIGD6 (GeneID 81789),SID315459943,-1.87,active
TIGD6 (GeneID 81789),SID315459943,-1.47,inactive
SYT12 (GeneID 91683),SID315460939,0.25,inactive
SYT12 (GeneID 91683),SID315460939,-0.65,inactive
SYT12 (GeneID 91683),SID315460939,0.49,inactive
SYT12 (GeneID 91683),SID315460939,-0.59,inactive
RSU1 (GeneID 6251),SID315451257,0.11,inactive
RSU1 (GeneID 6251),SID315451257,1.21,inactive
RSU1 (GeneID 6251),SID315451257,-0.1,inactive
RSU1 (GeneID 6251),SID315451257,-0.17,inactive
SLC6A8 (GeneID 6535),SID315451474,1.8,inactive
SLC6A8 (GeneID 6535),SID315451474,1.65,inactive
SLC6A8 (GeneID 6535),SID315451474,1.79,inactive
SLC6A8 (GeneID 6535),SID315451474,-0.16,inactive
SCNM1 (GeneID 79005),SID315459151,-1.42,inactive
SCNM1 (GeneID 79005),SID315459151,-1.21,inactive
SCNM1 (GeneID 79005),SID315459151,-1.38,inactive
SCNM1 (GeneID 79005),SID315459151,-1.66,active
CHTF18 (GeneID 63922),SID315458769,0.97,inactive
CHTF18 (GeneID 63922),SID315458769,0.65,inactive
CHTF18 (GeneID 63922),SID315458769,1.82,inactive
CHTF18 (GeneID 63922),SID315458769,0.23,inactive
APBB2 (GeneID 323),SID315447339,-0.81,inactive
APBB2 (GeneID 323),SID315447339,-0.53,inactive
APBB2 (GeneID 323),SID315447339,1.09,inactive
APBB2 (GeneID 323),SID315447339,-0.11,inactive
INSYN1 (GeneID 388135),SID315464469,0.16,inactive
INSYN1 (GeneID 388135),SID315464469,-0.01,inactive
INSYN1 (GeneID 388135),SID315464469,-0.02,inactive
INSYN1 (GeneID 388135),SID315464469,0.89,inactive
